Assay results taken from patent US20230142739A1, “PROTEIN-PROTEIN INTERACTION STABILIZERS” (The Regents of the University of California, priority 2020, published 2023).

System: 14-3-3/ERα-pp
Assay: Ligand-observed NMR (T1p relaxation, waterLOGSY)
Format: binding, human

`CC(C)(Oc1ccc(Cl)cc1)C(=O)N1CCCCC1` [2-(4-chlorophenoxy)-2-methyl-1-(piperidin-1-yl)propan-1-one] gave a T1p self-relaxation (absence of protein-peptide, 10 ms and 200 ms, 200 μM ligand) of 11% and a T1p relaxation (presence of protein-peptide (10 μM 14-3-3σ, 15 μM ERα-pp, 200 μM ligand)) of 42%.
